Experimental data: PubChem BioAssay AID652272 (Drosophila RNAi Screening Center, 2013)
Aim: 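Genes whose knock-down decreases or increases Hedgehog reporter output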 (primary screen). Cell system: Drosophila clone 8 (Cl8) cells. Knock-down reagent: long dsRNA against Drosophila genes. Read-out: 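Firefly light from a Hedgehog-responsive ptc promoter reporter and Renilla reference light, both read on a plate reader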. Direction: firefly Hh reporter signal: higher = more ptc reporter light; Renilla reference signal: higher = more Renilla control light. Rule for the call: 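Hit when the z-score averaged over two replicates is under -2 or over +3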. Calls: active = hit: reporter lowered or raised; inactive = not a hit.
The deposit covers about 21,000 reagents; below is a random part of those that have a named target and a result. Of all reagents, 503 (2.4%) are marked active. 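Raw plate light values, not normalised; calls rest on replicate z-scores that were not deposited; hits include reporter decreases as well as increases.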 Unmarked entries are inactive. A plus sign joins genes that one reagent is predicted to hit. Not stated in the record: the amount of reagent, the time to read-out.

With knock-down of CG34327 [DRSC19517], the screen gave firefly Hh reporter signal, replicate 1 = 1.18e5; firefly Hh reporter signal, replicate 2 = 3.09e5; Renilla reference signal, replicate 1 = 3153; Renilla reference signal, replicate 2 = 13504.
Silencing of CG10151 [DRSC05974] resulted in: firefly Hh reporter signal, replicate 1 = 69872; firefly Hh reporter signal, replicate 2 = 69488; Renilla reference signal, replicate 1 = 3498; Renilla reference signal, replicate 2 = 3171.
Alp13 (Alkaline phosphatase 13) [DRSC15781] showed firefly Hh reporter signal, replicate 1 = 94308; firefly Hh reporter signal, replicate 2 = 1.34e5; Renilla reference signal, replicate 1 = 3269; Renilla reference signal, replicate 2 = 3808.
For chif (chiffon) [DRSC03508], the entry reads firefly Hh reporter signal, replicate 1 = 63100; firefly Hh reporter signal, replicate 2 = 52821; Renilla reference signal, replicate 1 = 3248; Renilla reference signal, replicate 2 = 2203.
With knock-down of r + CG13012 [DRSC19531], the record shows firefly Hh reporter signal, replicate 1 = 76653; firefly Hh reporter signal, replicate 2 = 1.74e5; Renilla reference signal, replicate 1 = 2245; Renilla reference signal, replicate 2 = 7284.
With knock-down of CG9338 [DRSC03213], the record shows firefly Hh reporter signal, replicate 1 = 96292; firefly Hh reporter signal, replicate 2 = 82161; Renilla reference signal, replicate 1 = 3779; Renilla reference signal, replicate 2 = 3511.
Knock-down of mRpL19 (mitochondrial ribosomal protein L19) [DRSC16367] resulted in: firefly Hh reporter signal, replicate 1 = 1.10e5; firefly Hh reporter signal, replicate 2 = 7.17e5; firefly Hh reporter signal, replicate 3 = 1.84e5; Renilla reference signal, replicate 1 = 4550; Renilla reference signal, replicate 2 = 5237.
For CG9010 [DRSC07320], the entry reads firefly Hh reporter signal, replicate 1 = 89002; firefly Hh reporter signal, replicate 2 = 66617; Renilla reference signal, replicate 1 = 3947; Renilla reference signal, replicate 2 = 2640.
Depletion of CG13055 [DRSC09936] came out at: firefly Hh reporter signal, replicate 1 = 1.43e5; Renilla reference signal, replicate 1 = 5232; Renilla reference signal, replicate 2 = 3728.
For GlcAT-S (Glucuronyltransferase S) [DRSC02731] the deposit lists firefly Hh reporter signal, replicate 1 = 66067; firefly Hh reporter signal, replicate 2 = 46840; Renilla reference signal, replicate 1 = 3019; Renilla reference signal, replicate 2 = 2045.
Knock-down of CG4658 [DRSC02768] came out at: firefly Hh reporter signal, replicate 1 = 65509; firefly Hh reporter signal, replicate 2 = 41289; Renilla reference signal, replicate 1 = 1504; Renilla reference signal, replicate 2 = 3547.
Knock-down of Sec15 (Secretory 15) [DRSC16179] resulted in: firefly Hh reporter signal, replicate 1 = 6.58e5; firefly Hh reporter signal, replicate 2 = 1.44e5; Renilla reference signal, replicate 1 = 43008; Renilla reference signal, replicate 2 = 677.
For MYPT-75D (Myosin phosphatase targeting subunit 75D) [DRSC10743] the deposit lists firefly Hh reporter signal, replicate 1 = 90919; firefly Hh reporter signal, replicate 2 = 56563; Renilla reference signal, replicate 1 = 3898; Renilla reference signal, replicate 2 = 2032.
Against Fbxl7 (F-box and leucine-rich repeat protein 7) [DRSC15553], the entry reads firefly Hh reporter signal, replicate 1 = 1.17e5; firefly Hh reporter signal, replicate 2 = 1.11e5; Renilla reference signal, replicate 1 = 3194; Renilla reference signal, replicate 2 = 3249.
Silencing of Kaz-m1 (Kazal-type protease inhibitor m1) [DRSC16990] came out at: firefly Hh reporter signal, replicate 1 = 5.26e5; firefly Hh reporter signal, replicate 2 = 1.19e5; Renilla reference signal, replicate 1 = 26960; Renilla reference signal, replicate 2 = 3760.
Knock-down of Rga + asRNA:ASTR [DRSC12364] resulted in: firefly Hh reporter signal, replicate 1 = 57835 (active); firefly Hh reporter signal, replicate 2 = 85402; Renilla reference signal, replicate 1 = 3184; Renilla reference signal, replicate 2 = 4050.
After knock-down of ABCB7 (ATP binding cassette subfamily B member 7) [DRSC08603], the screen gave firefly Hh reporter signal, replicate 1 = 77004; firefly Hh reporter signal, replicate 2 = 35779; Renilla reference signal, replicate 1 = 2717; Renilla reference signal, replicate 2 = 3186.
After knock-down of CG34284 [DRSC14773], the record shows firefly Hh reporter signal, replicate 1 = 4.23e5; firefly Hh reporter signal, replicate 2 = 1.04e5; Renilla reference signal, replicate 1 = 19667; Renilla reference signal, replicate 2 = 2955.
Knock-down of RunxA (Runt related A) [DRSC20400] resulted in: firefly Hh reporter signal, replicate 1 = 7.73e5; firefly Hh reporter signal, replicate 2 = 3.01e5; Renilla reference signal, replicate 1 = 49213; Renilla reference signal, replicate 2 = 7725.
RunxA (Runt related A) [DRSC20498] scored firefly Hh reporter signal, replicate 1 = 1.17e5; firefly Hh reporter signal, replicate 2 = 70953; Renilla reference signal, replicate 1 = 3112; Renilla reference signal, replicate 2 = 1777.
Against RunxA (Runt related A) [DRSC20524], the entry reads firefly Hh reporter signal, replicate 1 = 96989; firefly Hh reporter signal, replicate 2 = 6.27e5; firefly Hh reporter signal, replicate 3 = 2.31e5; Renilla reference signal, replicate 1 = 3877; Renilla reference signal, replicate 2 = 4777.
Against CG5096 [DRSC02813] the deposit lists firefly Hh reporter signal, replicate 1 = 68757; firefly Hh reporter signal, replicate 2 = 88672; Renilla reference signal, replicate 1 = 1894; Renilla reference signal, replicate 2 = 6240.
With knock-down of Tdc1 (Tyrosine decarboxylase 1) [DRSC04942], the record shows firefly Hh reporter signal, replicate 1 = 1.42e5; firefly Hh reporter signal, replicate 2 = 3.28e5; Renilla reference signal, replicate 1 = 3665; Renilla reference signal, replicate 2 = 13885.
Rtnl2 [DRSC12609] scored firefly Hh reporter signal, replicate 1 = 1.00e5; firefly Hh reporter signal, replicate 2 = 1.84e5; Renilla reference signal, replicate 1 = 2104; Renilla reference signal, replicate 2 = 5137.
Against TwdlN (TweedleN) [DRSC15813], the values are firefly Hh reporter signal, replicate 1 = 76211; firefly Hh reporter signal, replicate 2 = 52624; Renilla reference signal, replicate 1 = 1648; Renilla reference signal, replicate 2 = 1636.
After knock-down of Atg4a (Autophagy-related 4a) [DRSC00656], the screen gave firefly Hh reporter signal, replicate 1 = 98709; firefly Hh reporter signal, replicate 2 = 65432; Renilla reference signal, replicate 1 = 3992; Renilla reference signal, replicate 2 = 2668.
With knock-down of TTLL12 (Tubulin tyrosine ligase-like 12) [DRSC06555], the record shows firefly Hh reporter signal, replicate 1 = 94352; firefly Hh reporter signal, replicate 2 = 68261; Renilla reference signal, replicate 1 = 2608; Renilla reference signal, replicate 2 = 4667.

In a second layout: entries from further up.
target | dsRNA | firefly Hh reporter signal, replicate 1 | firefly Hh reporter signal, replicate 2 | firefly Hh reporter signal, replicate 3 | Renilla reference signal, replicate 1 | Renilla reference signal, replicate 2
chif (chiffon) | DRSC03508 | 63100 | 52821 | – | 3248 | 2203
r + CG13012 | DRSC19531 | 76653 | 1.74e5 | – | 2245 | 7284
CG9338 | DRSC03213 | 96292 | 82161 | – | 3779 | 3511
